The other results are listed elsewhere or left out.

Chains of the proteins cited; added tags and fusions are not shown. Lines headed by an entry give the natural chain unless they say otherwise; changes in a name come on top.
UniProt O95067, whole entry: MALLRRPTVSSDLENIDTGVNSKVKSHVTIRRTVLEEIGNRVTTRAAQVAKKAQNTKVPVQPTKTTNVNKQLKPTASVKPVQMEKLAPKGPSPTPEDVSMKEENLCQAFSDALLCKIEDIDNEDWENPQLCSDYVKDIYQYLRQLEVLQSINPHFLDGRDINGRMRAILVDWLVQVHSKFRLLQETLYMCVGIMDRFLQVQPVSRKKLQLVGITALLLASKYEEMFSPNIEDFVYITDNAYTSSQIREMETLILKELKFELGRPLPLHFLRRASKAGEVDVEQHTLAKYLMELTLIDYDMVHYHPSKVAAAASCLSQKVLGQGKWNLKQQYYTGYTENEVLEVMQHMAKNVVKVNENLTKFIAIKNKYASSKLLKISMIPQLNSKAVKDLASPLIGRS
UniProt Q8NCH0: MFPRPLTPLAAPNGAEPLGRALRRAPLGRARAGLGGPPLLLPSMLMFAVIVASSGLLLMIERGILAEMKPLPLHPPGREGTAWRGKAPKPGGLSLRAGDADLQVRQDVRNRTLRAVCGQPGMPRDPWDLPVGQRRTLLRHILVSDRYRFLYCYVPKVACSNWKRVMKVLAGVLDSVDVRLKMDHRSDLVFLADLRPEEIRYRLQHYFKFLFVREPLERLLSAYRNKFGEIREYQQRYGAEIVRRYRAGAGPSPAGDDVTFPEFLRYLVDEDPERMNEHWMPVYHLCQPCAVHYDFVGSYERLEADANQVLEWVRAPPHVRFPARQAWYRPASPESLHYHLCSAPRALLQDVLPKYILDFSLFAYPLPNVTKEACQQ
UniProt Q9Y696: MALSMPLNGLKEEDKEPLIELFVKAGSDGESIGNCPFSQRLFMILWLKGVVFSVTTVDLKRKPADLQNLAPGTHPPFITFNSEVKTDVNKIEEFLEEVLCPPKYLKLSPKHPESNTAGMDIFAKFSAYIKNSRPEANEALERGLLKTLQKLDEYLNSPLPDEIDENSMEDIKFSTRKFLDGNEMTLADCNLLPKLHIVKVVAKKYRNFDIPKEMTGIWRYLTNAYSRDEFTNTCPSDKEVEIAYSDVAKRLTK
UniProt Q8TCZ2: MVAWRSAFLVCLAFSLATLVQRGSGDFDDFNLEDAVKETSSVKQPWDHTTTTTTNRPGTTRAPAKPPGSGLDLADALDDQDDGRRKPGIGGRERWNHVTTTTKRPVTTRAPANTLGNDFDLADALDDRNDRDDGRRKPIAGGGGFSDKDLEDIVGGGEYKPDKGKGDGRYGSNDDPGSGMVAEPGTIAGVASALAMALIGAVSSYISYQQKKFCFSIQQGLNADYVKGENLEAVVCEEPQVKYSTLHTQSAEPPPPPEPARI
UniProt Q96MT8: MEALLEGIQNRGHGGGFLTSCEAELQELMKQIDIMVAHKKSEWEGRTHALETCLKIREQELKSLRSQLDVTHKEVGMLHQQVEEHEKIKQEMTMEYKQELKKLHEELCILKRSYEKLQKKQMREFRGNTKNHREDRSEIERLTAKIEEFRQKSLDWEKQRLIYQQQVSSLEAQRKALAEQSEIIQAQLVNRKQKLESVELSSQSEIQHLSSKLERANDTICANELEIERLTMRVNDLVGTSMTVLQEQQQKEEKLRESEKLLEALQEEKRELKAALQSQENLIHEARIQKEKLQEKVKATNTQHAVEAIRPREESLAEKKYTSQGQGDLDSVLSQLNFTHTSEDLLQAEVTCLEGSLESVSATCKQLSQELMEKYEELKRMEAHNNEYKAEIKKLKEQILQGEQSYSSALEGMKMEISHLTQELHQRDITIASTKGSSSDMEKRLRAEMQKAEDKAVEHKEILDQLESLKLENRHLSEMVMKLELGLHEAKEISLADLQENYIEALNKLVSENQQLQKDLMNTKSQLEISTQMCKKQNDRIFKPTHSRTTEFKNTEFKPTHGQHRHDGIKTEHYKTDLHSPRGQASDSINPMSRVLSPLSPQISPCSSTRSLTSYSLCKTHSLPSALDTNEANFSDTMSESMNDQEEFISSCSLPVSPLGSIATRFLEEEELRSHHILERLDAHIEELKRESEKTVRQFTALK
UniProt Q12834, whole entry: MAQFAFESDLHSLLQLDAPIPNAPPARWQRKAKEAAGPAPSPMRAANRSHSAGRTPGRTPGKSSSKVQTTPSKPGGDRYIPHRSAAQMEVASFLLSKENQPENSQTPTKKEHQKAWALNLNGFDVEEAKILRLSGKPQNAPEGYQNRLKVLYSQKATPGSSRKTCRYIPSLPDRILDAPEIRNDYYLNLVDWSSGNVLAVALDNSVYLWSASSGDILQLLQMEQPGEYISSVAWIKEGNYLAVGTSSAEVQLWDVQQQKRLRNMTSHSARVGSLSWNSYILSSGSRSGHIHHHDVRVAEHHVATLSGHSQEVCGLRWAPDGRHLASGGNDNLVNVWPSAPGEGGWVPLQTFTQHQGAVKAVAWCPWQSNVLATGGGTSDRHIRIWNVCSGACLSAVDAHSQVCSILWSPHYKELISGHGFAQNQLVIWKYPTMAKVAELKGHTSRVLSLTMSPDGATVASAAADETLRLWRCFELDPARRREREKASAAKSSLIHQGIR
UniProt O95674: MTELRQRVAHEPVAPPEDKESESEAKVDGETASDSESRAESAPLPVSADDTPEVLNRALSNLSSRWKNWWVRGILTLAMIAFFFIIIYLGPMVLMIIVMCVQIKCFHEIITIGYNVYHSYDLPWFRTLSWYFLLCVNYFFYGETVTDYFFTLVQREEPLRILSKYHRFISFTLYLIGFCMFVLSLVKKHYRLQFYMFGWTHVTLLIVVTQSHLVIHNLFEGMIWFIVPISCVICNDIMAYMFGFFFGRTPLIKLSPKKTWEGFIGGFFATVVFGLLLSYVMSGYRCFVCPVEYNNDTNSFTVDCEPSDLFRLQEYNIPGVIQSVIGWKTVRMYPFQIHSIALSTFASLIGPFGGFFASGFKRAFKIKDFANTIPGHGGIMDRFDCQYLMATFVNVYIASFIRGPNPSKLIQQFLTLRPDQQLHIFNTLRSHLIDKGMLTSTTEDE
UniProt Q9NUP1: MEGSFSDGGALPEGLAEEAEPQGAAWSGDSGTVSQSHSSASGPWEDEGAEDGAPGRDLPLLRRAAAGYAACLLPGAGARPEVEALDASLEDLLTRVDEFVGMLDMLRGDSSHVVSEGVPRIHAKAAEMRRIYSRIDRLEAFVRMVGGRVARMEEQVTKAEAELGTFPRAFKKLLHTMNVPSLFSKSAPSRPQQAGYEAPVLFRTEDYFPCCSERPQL
UniProt Q8N5K1: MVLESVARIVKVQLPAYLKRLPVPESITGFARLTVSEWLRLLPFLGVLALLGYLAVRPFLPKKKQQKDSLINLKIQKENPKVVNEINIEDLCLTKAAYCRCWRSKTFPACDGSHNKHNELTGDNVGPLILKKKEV
UniProt Q00610: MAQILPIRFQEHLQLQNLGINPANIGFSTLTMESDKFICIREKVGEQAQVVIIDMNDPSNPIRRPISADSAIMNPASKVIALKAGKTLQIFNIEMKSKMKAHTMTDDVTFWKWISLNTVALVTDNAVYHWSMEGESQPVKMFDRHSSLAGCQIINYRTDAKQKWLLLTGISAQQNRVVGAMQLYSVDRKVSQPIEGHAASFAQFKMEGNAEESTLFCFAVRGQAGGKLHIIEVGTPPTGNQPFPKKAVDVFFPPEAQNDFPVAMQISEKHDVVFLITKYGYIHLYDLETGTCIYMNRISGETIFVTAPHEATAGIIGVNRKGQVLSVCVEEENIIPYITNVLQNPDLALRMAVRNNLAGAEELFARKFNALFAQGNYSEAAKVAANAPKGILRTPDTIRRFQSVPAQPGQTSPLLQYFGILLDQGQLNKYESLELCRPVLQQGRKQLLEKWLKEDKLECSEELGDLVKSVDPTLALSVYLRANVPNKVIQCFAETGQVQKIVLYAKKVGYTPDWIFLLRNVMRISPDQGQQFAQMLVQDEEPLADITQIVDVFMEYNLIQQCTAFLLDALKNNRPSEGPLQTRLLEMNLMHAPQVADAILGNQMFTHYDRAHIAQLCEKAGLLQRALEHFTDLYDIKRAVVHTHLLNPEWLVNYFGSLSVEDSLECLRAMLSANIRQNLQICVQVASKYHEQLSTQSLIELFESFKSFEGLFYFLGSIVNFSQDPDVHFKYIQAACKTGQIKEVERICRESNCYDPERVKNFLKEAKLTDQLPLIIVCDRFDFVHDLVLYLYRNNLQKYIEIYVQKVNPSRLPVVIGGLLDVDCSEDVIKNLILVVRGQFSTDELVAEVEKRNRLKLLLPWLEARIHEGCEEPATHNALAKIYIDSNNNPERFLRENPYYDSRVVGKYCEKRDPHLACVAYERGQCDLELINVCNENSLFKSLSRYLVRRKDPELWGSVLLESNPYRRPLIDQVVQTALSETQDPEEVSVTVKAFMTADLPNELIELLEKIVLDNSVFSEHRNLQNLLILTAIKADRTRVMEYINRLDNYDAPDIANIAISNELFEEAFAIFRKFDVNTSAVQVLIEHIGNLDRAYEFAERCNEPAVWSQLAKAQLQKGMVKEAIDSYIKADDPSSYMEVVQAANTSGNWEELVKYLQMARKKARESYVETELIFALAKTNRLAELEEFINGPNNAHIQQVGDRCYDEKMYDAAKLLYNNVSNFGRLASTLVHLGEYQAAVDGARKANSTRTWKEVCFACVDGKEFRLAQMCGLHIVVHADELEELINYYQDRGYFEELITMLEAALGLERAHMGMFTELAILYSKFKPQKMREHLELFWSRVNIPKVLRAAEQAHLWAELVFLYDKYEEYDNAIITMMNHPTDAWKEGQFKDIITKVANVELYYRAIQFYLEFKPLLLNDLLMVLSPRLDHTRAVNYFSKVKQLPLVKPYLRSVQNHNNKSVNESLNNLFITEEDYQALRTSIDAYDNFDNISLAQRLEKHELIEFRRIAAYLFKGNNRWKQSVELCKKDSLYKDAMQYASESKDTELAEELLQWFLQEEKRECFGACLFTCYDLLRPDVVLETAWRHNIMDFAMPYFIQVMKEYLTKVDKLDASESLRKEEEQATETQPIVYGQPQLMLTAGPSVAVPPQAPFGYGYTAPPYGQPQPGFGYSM
UniProt Q8WUX2: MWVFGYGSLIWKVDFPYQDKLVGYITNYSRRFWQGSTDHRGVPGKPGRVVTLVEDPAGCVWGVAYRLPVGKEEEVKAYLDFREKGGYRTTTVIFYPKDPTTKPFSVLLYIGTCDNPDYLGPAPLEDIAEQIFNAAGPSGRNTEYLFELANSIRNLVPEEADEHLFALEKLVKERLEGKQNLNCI
UniProt P50750, whole entry: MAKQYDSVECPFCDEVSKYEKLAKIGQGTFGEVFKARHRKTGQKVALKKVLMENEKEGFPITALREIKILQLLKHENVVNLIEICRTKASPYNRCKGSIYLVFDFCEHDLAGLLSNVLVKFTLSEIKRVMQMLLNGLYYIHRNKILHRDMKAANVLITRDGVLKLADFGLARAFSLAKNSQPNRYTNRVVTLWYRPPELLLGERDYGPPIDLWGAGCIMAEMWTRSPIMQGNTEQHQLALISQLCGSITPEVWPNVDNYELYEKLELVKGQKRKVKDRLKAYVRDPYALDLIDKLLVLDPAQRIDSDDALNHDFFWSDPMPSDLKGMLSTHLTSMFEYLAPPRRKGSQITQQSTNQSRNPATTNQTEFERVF
UniProt Q99832: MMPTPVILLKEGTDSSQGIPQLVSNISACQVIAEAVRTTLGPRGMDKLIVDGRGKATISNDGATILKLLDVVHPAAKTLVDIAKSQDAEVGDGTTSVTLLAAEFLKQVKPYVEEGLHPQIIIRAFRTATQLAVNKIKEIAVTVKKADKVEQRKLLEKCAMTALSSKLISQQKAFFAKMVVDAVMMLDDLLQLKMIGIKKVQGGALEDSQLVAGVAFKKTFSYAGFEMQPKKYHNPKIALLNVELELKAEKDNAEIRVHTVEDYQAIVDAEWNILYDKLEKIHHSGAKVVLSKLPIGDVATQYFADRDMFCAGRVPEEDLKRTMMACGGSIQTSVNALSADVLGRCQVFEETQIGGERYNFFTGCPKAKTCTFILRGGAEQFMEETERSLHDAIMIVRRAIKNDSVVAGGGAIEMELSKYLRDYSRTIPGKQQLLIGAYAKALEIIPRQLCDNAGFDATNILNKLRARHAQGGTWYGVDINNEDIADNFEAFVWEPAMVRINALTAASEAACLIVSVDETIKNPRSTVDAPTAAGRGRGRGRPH
UniProt Q9UEE9, whole entry: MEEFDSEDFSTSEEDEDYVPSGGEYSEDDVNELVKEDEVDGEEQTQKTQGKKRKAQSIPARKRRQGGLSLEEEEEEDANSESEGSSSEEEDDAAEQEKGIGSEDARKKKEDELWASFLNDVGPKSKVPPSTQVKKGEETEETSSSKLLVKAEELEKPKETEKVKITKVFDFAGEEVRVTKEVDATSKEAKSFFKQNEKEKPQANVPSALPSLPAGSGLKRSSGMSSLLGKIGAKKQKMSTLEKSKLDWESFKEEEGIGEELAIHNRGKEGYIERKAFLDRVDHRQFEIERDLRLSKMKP
UniProt Q9H6E4: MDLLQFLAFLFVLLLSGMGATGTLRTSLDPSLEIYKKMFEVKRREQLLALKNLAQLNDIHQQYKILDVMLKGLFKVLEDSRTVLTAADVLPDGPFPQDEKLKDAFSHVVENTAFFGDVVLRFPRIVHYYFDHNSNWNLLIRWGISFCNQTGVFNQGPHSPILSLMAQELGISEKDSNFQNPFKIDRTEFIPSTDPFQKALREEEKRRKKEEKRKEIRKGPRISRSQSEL

Compound in this assay: COc1ccc(Cn2ccc3ccc(C(=O)NO)cc32)cc1
As to the kind of experiment: dose-dependent thermal stabilisation call (2D-TPP, DLPTP, 10% FDR) (binary (1 = stabilised)); higher = stabilised by the compound. Particulars: system: HL-60 intact cells; concentration range 0.04-10 µM.
As to CCT8 (UniProt P50990), the “dose-dependent thermal stabilisation call” value is inactive: 0.
On to CCNB2 (UniProt O95067), for which the “dose-dependent thermal stabilisation call” value is inactive: 0.
The figure for CEP120 (UniProt Q8N960) is inactive: 0.
The figure for CHST14 (UniProt Q8NCH0) is inactive: 0; for CIB1 (UniProt Q99828) it is inactive: 0.
As for CEBPB (UniProt P17676), the figure is inactive: 0; as for CDAN1 (UniProt Q8IWY9), inactive: 0.
Turning to CLIC4 (UniProt Q9Y696), the “dose-dependent thermal stabilisation call” value was inactive: 0.
Take CHUK (UniProt O15111): the “dose-dependent thermal stabilisation call” value is inactive: 0.
As to CDC5L (UniProt Q99459), the “dose-dependent thermal stabilisation call” value was inactive: 0.
As for CD99L2 (UniProt Q8TCZ2), the figure is inactive: 0; as for CLASP2 (UniProt O75122), inactive: 0; as for CDC42 (UniProt P60953), inactive: 0.
Regarding CEP63 (UniProt Q96MT8), the “dose-dependent thermal stabilisation call” value is inactive: 0.
Take CNOT8 (UniProt Q9UFF9): the “dose-dependent thermal stabilisation call” value was inactive: 0.
Turning to CDC20 (UniProt Q12834), the “dose-dependent thermal stabilisation call” value is inactive: 0.
The figure for CETN3 (UniProt O15182) is inactive: 0; for CDS2 (UniProt O95674) it is inactive: 0.
As for CNO (UniProt Q9NUP1), the figure is inactive: 0; as for CLN8 (UniProt Q9UBY8), inactive: 0; as for CNOT6L (UniProt Q96LI5), inactive: 0.
The figure for CISD2 (UniProt Q8N5K1) is inactive: 0.
In the case of CERCAM (UniProt Q5T4B2), the “dose-dependent thermal stabilisation call” value was inactive: 0.
As for CLTC (UniProt Q00610), the figure is inactive: 0; as for CHAC2 (UniProt Q8WUX2), inactive: 0.
As for CDK9 (UniProt P50750), the figure is inactive: 0.
For CCT7 (UniProt Q99832), the “dose-dependent thermal stabilisation call” value was inactive: 0.
Regarding CEP290 (UniProt O15078), the “dose-dependent thermal stabilisation call” value is inactive: 0.
Turning to CNNM3 (UniProt Q8NE01), the “dose-dependent thermal stabilisation call” value is inactive: 0.
The figure for CEBPA (UniProt P49715) is inactive: 0; for CCT2 (UniProt P78371) it is inactive: 0.
As for CHD4 (UniProt Q14839), the figure is inactive: 0; as for CFDP1 (UniProt Q9UEE9), inactive: 0.
The figure for CCDC9 (UniProt Q9Y3X0) is inactive: 0; for CFL1 (UniProt P23528) it is inactive: 0; for CHM (UniProt P24386) it is inactive: 0.
Turning to CCDC134 (UniProt Q9H6E4), the “dose-dependent thermal stabilisation call” value is inactive: 0.

The values are drawn from the supplement of paper PMC7666118.
